# The whole screen tested about 2,500 compounds, of which about 990 (40%) were called active. All entries are inconclusive by the source's own rule. Clear calls are listed elsewhere. Cut-off not given; nearly all actives show AC50 up to about 26 µM.
# Assay: viability loss in pontine glioma line – cell-based, SU-DIPG-XXV, MIPE5.0, CellTiter-Glo, qHTS, dose response (AID 1347065);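 further: cells exposed to compound for 48 hours before ATP readout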
# Details: CellTiter-Glo ATP luminescence
# Excerpt: Diffuse intrinsic pontine glioma (DIPG) is a rare pediatric brain tumor with a poor prognosis. This diagnosis is typically fatal as the tumor location prohibits surgical removal therefore patients are left with radiotherapy as the only approved therapeutic option. Due to the lack of chemotherapeutic options for this tumor type, we sought to screen a library of investigational and approved agents to determine efficacy in vitro with the goal of finding novel treatments for in vivo testing. The NCATS developed MIPE libraries were used to screen six patient derived DIPG cell lines, JHH-DIPG-1, SU-DIPG-IV, SU-DIPG-VI, SU-DIPG-XIII, SU-DIPG-XVII and SU-DIPG-XXV. Each compound was screened at an 11 concentrations from 47uM to 7.6nM. Top active compounds from this screen were then moved to drug combination screening in order to determine synergistic compounds that could move quickly to clinical trials.
# JHH-DIPG-1, SU-DIPG-IV, SU-DIPG-VI, SU-DIPG-XIII, SU-DIPG-XVII and SU-DIPG-XXV were seeded into 1536 well white polystyrene tissue culture treated Corning plates using a MultiDrop Combi dispenser (ThermoFisher Scientific) and small cassette in 5 microL their normal growth media. […] Luminescence readings were taken using a Viewlux (PerkinElmer) with a 2 second exposure time per plate. […]
row,SMILES,AC50
1,CN(CCCl)CCCl,inconclusive: 14.8 µM
